The list is a part of this screen's results and no random one: it gathers tests that were run many times, whatever their T/C, doses with no T/C, and many T/C values between a quarter and a half above the control. Further doses and runs are listed elsewhere. T/C gives the treated animals as a percentage of the vehicle group. Some doses have a count of surviving animals in place of a T/C: the source holds a T/C of zero for them, seemingly a mark for toxic or unscored doses. Some survivor counts are full or nearly so, which does not show that the dose was tolerated: survival well below the control is almost never listed, so the zero probably covers shortened survival too. Survivors were counted at the toxicity check, usually on the fifth day, unless a day is given; later deaths do not show. Schedules are NCI's codes, taken here to give the interval after Q, in days (D) or hours (H), and the number of doses after X. Some entries hold several experiments; their values stand side by side, smallest first. Where survival is the endpoint, this PubChem deposit counts one and a half times the control or more as active, and values a quarter to a half above the control carry no call in these data; other NCI protocols may use other cut-offs. Some T/C values are followed by the survivors on the day toxicity was checked, most often the fifth; without a count, all were alive then. Some schedules carry Z or #; the key to these is not given.
Test system: CD2F1 mice, L1210 leukemia ip, survival T/C
Test: NCI In Vivo Anticancer Drug Screen. Data for tumor model L1210 Leukemia (intraperitoneal) in CD2F1 (CDF1) mice
Conditions: T/C endpoint: mean survival time, higher T/C = longer survival
Procedure, shortened: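 Ratio T/C, where T is the treated-group value and C the vehicle-dosed control value, from mice implanted with a transplantable tumor.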

[1] = dose: 300.0 mg/kg/injection, schedule: Q01DX001 (ip), vehicle: saline
[2] = dose: 400.0 mg/kg/injection, schedule: Q04DX003 (ip), vehicle: saline with Tween-80
[3] = dose: 12.5 mg/kg/injection, schedule: Q04DX003 (ip), vehicle: saline
[4] = dose: 100.0 mg/kg/injection, schedule: Q04DX003 (ip), vehicle: saline
[5] = dose: 200.0 mg/kg/injection, schedule: Q04DX003 (ip), vehicle: saline
[6] = dose: 200.0 mg/kg/injection, schedule: Q01DX009 (ip), vehicle: other
[7] = dose: 400.0 mg/kg/injection, schedule: Q01DX009 (ip), vehicle: saline with Tween-80
[8] = dose: 400.0 mg/kg/injection, schedule: Q04DX003 (ip), vehicle: saline

CC(C)OC(=O)c1cc([N+](=O)[O-])c(Sc2ncnc3nc[nH]c23)c([N+](=O)[O-])c1
T/C (dose: 9.9 mg/kg/injection, schedule: Q01DX005 (ip), vehicle: other): 137 % of control [5 of 6 alive]
T/C (dose: 10.0 mg/kg/injection, schedule: Q01DX005 (ip), vehicle: other): 129 % of control
T/C (dose: 14.8 mg/kg/injection, schedule: Q01DX005 (ip), vehicle: other): 125 and 143 % of control
T/C (dose: 22.2 mg/kg/injection, schedule: Q01DX005 (ip), vehicle: other): 129 and 142 % of control [5 of 6 alive]
T/C (dose: 33.4 mg/kg/injection, schedule: Q01DX005 (ip), vehicle: other): 129 % of control

S=C(N/N=C/c1ccccn1)N/N=C/c1ccccn1
survivor count (dose: 150.0 mg/kg/injection, schedule: Q01DX009 (ip), vehicle: saline with Tween-80): 1 of 6
survivor count (dose: 300.0 mg/kg/injection, schedule: Q01DX009 (ip), vehicle: saline with Tween-80): 0 of 6

Cc1cc2cc3n(c2nn1)N=C(Cl)CC3
survivor count (dose: 400.0 mg/kg/injection, schedule: Q04DX002 (ip), vehicle: Klucel (hydroxypropylcellulose) (HPC)): 2 of 6 on day 6
survivor count (dose: 495.0 mg/kg/injection, schedule: Q04DX002 (ip), vehicle: Klucel (hydroxypropylcellulose) (HPC)): 5 of 8 on day 6
survivor count (dose: 600.0 mg/kg/injection, schedule: Q04DX002 (ip), vehicle: Klucel (hydroxypropylcellulose) (HPC)): 0 of 6 on day 6

CN(C)N=Nc1ccc(S(N)(=O)=O)cc1C(N)=O
T/C (dose: 75.0 mg/kg/injection, schedule: Q01DX009 (ip), vehicle: Klucel (hydroxypropylcellulose) (HPC)): 135 % of control
T/C (dose: 150.0 mg/kg/injection, schedule: Q01DX009 (ip), vehicle: Klucel (hydroxypropylcellulose) (HPC)): 132 and 146 % of control

CN(C)N=C1CCCCCC1
survivor count [1]: 1 of 6

C/C(C#N)=C/c1ccccc1
survivor count [2]: 0 of 6

COc1cc2c(cc1OC)-c1cc3cc(OC)c(OC)cc3c(C)[n+]1CC2 (tested in a mixture with another compound)
survivor count (dose: 200.0 mg/kg/injection, schedule: Q04DX003 (ip), vehicle: saline sonified): 0 of 6
survivor count (dose: 400.0 mg/kg/injection, schedule: Q04DX003 (ip), vehicle: saline sonified): 0 of 6

COc1ccccc1NC(=O)Oc1ccc(Cl)cc1Cl
survivor count (dose: 400.0 mg/kg/injection, schedule: Q04DX002 (ip), vehicle: saline with Tween-80): 0 of 3

O=C1C(N2CCCC2)=C(N2CC2)C(=O)C(N2CCCC2)=C1N1CC1
T/C (dose: 1.56 mg/kg/injection, schedule: Q04DX003 (ip), vehicle: saline): 105, 109, 117, 122 % of control
T/C (dose: 3.12 mg/kg/injection, schedule: Q04DX003 (ip), vehicle: saline): 114, 129, 135, 136 % of control
T/C (dose: 6.25 mg/kg/injection, schedule: Q04DX003 (ip), vehicle: saline): 145, 146, 153, 170 % of control
T/C [3]: 90, 93, 110 % of control
survivor count [3]: 2 of 6

CCC([NH-])(CC)C[NH-].[Cl][Pt+2][Cl]
T/C (dose: 6.25 mg/kg/injection, schedule: Q04DX003 (ip), vehicle: saline with Tween-80): 127 % of control
T/C (dose: 12.5 mg/kg/injection, schedule: Q04DX003 (ip), vehicle: saline with Tween-80): 135 % of control
T/C [3]: 146 % of control
survivor count (dose: 25.0 mg/kg/injection, schedule: Q04DX003 (ip), vehicle: saline): 5 of 6
survivor count (dose: 50.0 mg/kg/injection, schedule: Q04DX003 (ip), vehicle: saline): 5 of 6
survivor count [4]: 0 of 6
survivor count [5]: 0 of 6

COc1cccc2c1C(=O)c1c(O)c3c(c(O)c1C2=O)C[C@@](O)(C(=O)CN1CCOCC1)C[C@@H]3OC1CC(N)C(O)C(C)O1 (some centres undefined)
survivor count (dose: 3.13 mg/kg/injection, schedule: Q04DX003 (ip), vehicle: water): 6 of 6
survivor count (dose: 100.0 mg/kg/injection, schedule: Q04DX003 (ip), vehicle: water): 6 of 6

CC([NH-])CC(C)[NH-].[I][Pt+2][I] (centres undefined)
T/C (dose: 25.0 mg/kg/injection, schedule: Q04DX003 (ip), vehicle: saline with Tween-80): 125 % of control

Fc1ccc2ccnnc2c1
survivor count (dose: 400.0 mg/kg/injection, schedule: Q01DX001 (ip), vehicle: other): 0 of 6

O=C(c1ccc(-c2ccccc2)cc1)C1C(c2ccccc2)N1C1CCCCC1 (centres undefined)
survivor count [6]: 3 of 6

COC(=O)c1c[nH]c(=S)n1C(C)c1ccccc1 (centres undefined)
survivor count [7]: 3 of 6

CC(CN(C)C)CN1c2ccccc2Sc2ccc(C(F)(F)F)cc21 (centres undefined)
survivor count (dose: 25.0 mg/kg/injection, schedule: Q01DX009 (ip), vehicle: saline): 0 of 6
survivor count [4]: 0 of 6
survivor count [5]: 0 of 6
survivor count [8]: 0 of 6

O=C1NC(=O)C2CC(Br)C(Br)CC12 (centres undefined)
survivor count (dose: 40.0 mg/kg/injection, schedule: Q01DX001 (ip), vehicle: saline): 0 of 6
survivor count (dose: 75.0 mg/kg/injection, schedule: Q01DX001 (ip), vehicle: saline): 0 of 6
survivor count (dose: 80.0 mg/kg/injection, schedule: Q01DX001 (ip), vehicle: saline): 0 of 6
survivor count (dose: 150.0 mg/kg/injection, schedule: Q01DX001 (ip), vehicle: saline): 0 of 6
survivor count [1]: 0 of 6

CCOC(=O)NC(NC(=O)OCC)C(Br)(Br)Br
T/C (dose: 100.0 mg/kg/injection, schedule: Q01DX001 (ip), vehicle: Klucel (hydroxypropylcellulose) (HPC)): 137 % of control

CC(=O)OC1CCC2(C)CCCC(O)C2(O)C1 (centres undefined)
survivor count (dose: 200.0 mg/kg/injection, schedule: Q04DX003 (ip), vehicle: acetone): 2 of 6
survivor count (dose: 400.0 mg/kg/injection, schedule: Q04DX003 (ip), vehicle: acetone): 2 of 6

OC(CF)CCl (centres undefined)
survivor count (dose: 100.0 mg/kg/injection, schedule: Q01DX009 (ip), vehicle: saline with Tween-80): 0 of 6
survivor count (dose: 200.0 mg/kg/injection, schedule: Q01DX009 (ip), vehicle: saline with Tween-80): 0 of 6
survivor count [8]: 5 of 6

CC(=O)Nc1cccc2ccccc12
survivor count [7]: 5 of 6

CC(C)(CO)C(O)C(=O)NCCS(=O)(=O)c1ccc(F)cc1 (centres undefined)
survivor count [7]: 6 of 6

COC(=O)c1cn[nH]c1/N=N/N(C)C
T/C [6]: 129 % of control

Nc1nc(N)c2nc(CNc3ccc(C(=O)NC(CC(=O)O)C(=O)O)cc3)cnc2n1 (centres undefined)
survivor count (dose: 400.0 mg/kg/injection, schedule: Q01DX001 (ip), vehicle: saline): 1 of 6

OC1C2CCN(CC2)C1CN1CC=C(c2ccccc2)CC1 (centres undefined)
survivor count [5]: 1 of 6
survivor count [8]: 0 of 6

CCC[CH2][Sn]1([CH2]CCC)[O]C2C(CO)OC(n3ccc(N)nc3=O)C2[O]1 (centres undefined)
T/C (dose: 3.12 mg/kg/injection, schedule: Q01DX009 (ip), vehicle: Klucel (hydroxypropylcellulose) (HPC)): 125 % of control
survivor count (dose: 12.5 mg/kg/injection, schedule: Q01DX005 (ip), vehicle: other): 3 of 6
survivor count (dose: 12.5 mg/kg/injection, schedule: Q01DX009 (ip), vehicle: Klucel (hydroxypropylcellulose) (HPC)): 0 of 6
survivor count (dose: 25.0 mg/kg/injection, schedule: Q01DX005 (ip), vehicle: other): 0 of 6
survivor count (dose: 25.0 mg/kg/injection, schedule: Q01DX009 (ip), vehicle: Klucel (hydroxypropylcellulose) (HPC)): 0 of 6

CCCCC(CC(=O)O)c1ccc(Cl)cc1 (centres undefined)
survivor count [2]: 1 of 6

N#[N+]c1cnc([O-])[nH]c1=O
T/C (dose: 4.0 mg/kg/injection, schedule: Q03DX Z (ip), vehicle: saline): 125 % of control
T/C (dose: 8.0 mg/kg/injection, schedule: Q01DX001 (ip), vehicle: saline): 130 % of control [5 of 6 alive]
T/C (dose: 8.0 mg/kg/injection, schedule: Q03DX Z (ip), vehicle: saline): 127 % of control
T/C (dose: 16.0 mg/kg/injection, schedule: Q01DX001 (ip), vehicle: saline): 133 % of control
T/C (dose: 16.0 mg/kg/injection, schedule: Q03DX Z (ip), vehicle: saline): 145 % of control [5 of 6 alive]
survivor count (dose: 64.0 mg/kg/injection, schedule: Q01DX001 (ip), vehicle: saline): 0 of 6 and 6 of 6

O=C1c2cc([N+](=O)[O-])ccc2-c2cc(Br)ccc21
survivor count [2]: 0 of 6

From PubChem BioAssay AID256 (DTP/NCI, 2004)
